Measurements reported in PubChem BioAssay AID1259308 (NCATS, 2017).
This is one part, drawn at random, of about 59,000 reagents tested. About 1,510 of all reagents (2.6%) count as active. 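Calls use total luciferase alone and ignore viability, so some active siRNAs may act by altering cell number.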 Reagents against one gene are numbered here. Further read-outs or replicates are left out here.

Purpose: 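Knock-downs that increase output of a recombinant reporter protein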 (primary screen)
System: human HEK293 embryonic kidney cells stably expressing firefly luciferase (HEK-CMV-Luc2-Hygro)
Knock-down reagent: single siRNA against human genes, 0.8 pmol siRNA per well
Timing: 72 h
Measured: 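Luciferase light (ONE-Glo) measured on one replicate plate set and viability (CellTiter-Glo) on the other, scaled to a negative control siRNA, with robust z-scores and luciferase per cell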
Reading the numbers: total luciferase, z-score: higher = more reporter protein produced
Active means: 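Active when the median/MAD z-score for overall luciferase is greater than 3; a gene was taken forward for validation with new siRNAs if at least two of its three siRNAs passed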
Meaning of the calls: active = raised luciferase; inactive = no rise

The opening 3 entries as a preview:
Gene,reagent,"total luciferase, z-score",call
SOWAHC (sosondowah ankyrin repeat domain family member C),1,-0.747,inactive
SOWAHC (sosondowah ankyrin repeat domain family member C),2,-0.0318,inactive
SOWAHC (sosondowah ankyrin repeat domain family member C),3,0.00233,inactive

The listing, from the first entry:
Gene,reagent,"total luciferase, z-score",call
SOWAHC (sosondowah ankyrin repeat domain family member C),1,-0.747,inactive
SOWAHC (sosondowah ankyrin repeat domain family member C),2,-0.0318,inactive
SOWAHC (sosondowah ankyrin repeat domain family member C),3,0.00233,inactive
UGT3A1 (UDP glycosyltransferase family 3 member A1),1,-0.685,inactive
UGT3A1 (UDP glycosyltransferase family 3 member A1),2,-0.133,inactive
UGT3A1 (UDP glycosyltransferase family 3 member A1),3,-0.874,inactive
DEFB125 (defensin beta 125),1,-0.807,inactive
DEFB125 (defensin beta 125),2,0.287,inactive
DEFB125 (defensin beta 125),3,0.0984,inactive
TBC1D21 (TBC1 domain family member 21),1,0.855,inactive
TBC1D21 (TBC1 domain family member 21),2,0.953,inactive
TBC1D21 (TBC1 domain family member 21),3,1.02,inactive
H2AX (H2A.X variant histone),1,1.88,inactive
H2AX (H2A.X variant histone),2,-0.445,inactive
H2AX (H2A.X variant histone),3,0.368,inactive
CASP6 (caspase 6),1,-0.231,inactive
CASP6 (caspase 6),2,1.59,inactive
CASP6 (caspase 6),3,0.0372,inactive
ZNF776 (zinc finger protein 776),1,-0.141,inactive
ZNF776 (zinc finger protein 776),2,2.94,inactive
ZNF776 (zinc finger protein 776),3,1.12,inactive
OFCC1 (orofacial cleft 1 candidate 1 (pseudogene)),1,0.684,inactive
OFCC1 (orofacial cleft 1 candidate 1 (pseudogene)),2,-0.583,inactive
OFCC1 (orofacial cleft 1 candidate 1 (pseudogene)),3,2.15,inactive
